PubChem BioAssay AID602196, INSERM, 2012

- Assay: 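Modifiers of cisplatin sensitivity in A549 cells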
- System: human A549 lung cancer cells
- Reagent: siRNA pair against human genes
- Time to read-out: 48 h transfection before cisplatin; time from cisplatin to read-out not stated
- Conditions: cisplatin at a dose killing half of control-siRNA cells; exact dose and duration not given
- Detection: 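Cisplatin cell death as a shift from the 50% death seen with control siRNA; siRNAs toxic or growth-blocking alone scored 0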
- Scale: two-siRNA summed score (-2 to +2): higher = both siRNAs protect from cisplatin killing; -2 means both sensitise; mean protection from cisplatin (shift in death) and protection from cisplatin (shift in death), siRNA C: higher = protection from cisplatin killing
- Call rule: 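Each siRNA scores 0 if harmful alone by LDH or WST-1, otherwise +1 if it reduces and -1 if it increases cisplatin killing; a gene is active when both siRNAs agree (sum +2 or -2)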
- Meaning of the calls: active = both siRNAs shift cisplatin killing the same way; inactive = no consistent shift, or siRNA harmful alone
Here is a random part of about 23,000 deposited reagents. 455 of them (2%) count as active. 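Active includes both protection and sensitisation; some change values fall well beyond the stated -50 to +50 range.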 A number with no mark means an inactive call. Further read-outs or replicates are left out here. The record does not give: the amount of reagent.

| gene knocked down | PubChem SID | two-siRNA summed score (-2 to +2) | mean protection from cisplatin (shift in death) (%) | protection from cisplatin (shift in death), siRNA C (%) |
| --- | --- | --- | --- | --- |
| LOC440815 | SID131521153 | 1 | 12.4 | 18.6 |
| LOC389827 | SID131520091 | 1 | 8.7 | 3 |
| LOC440252 | SID131517311 | 0 | 13 | 8.5 |
| SPATS1 | SID131521593 | 1 | 14.1 | 16.8 |
| LOC343301 | SID131511661 | 0 | 4.6 | -4.2 |
| FXR2 | SID131508610 | 0 | 1.3 | 6.9 |
| RNH1 | SID131521138 | 1 | 12.3 | 18.4 |
| CLEC1B | SID131504526 | 0 | -5.2 | -17.6 |
| FNDC3B | SID131521124 | 1 | 12.3 | 15.2 |
| COQ6 | SID131500809 | -1 | -15.7 | -32.5 |
| LOC284988 | SID131518495 | 0 | 20.5 | 5.9 |
| IDH3G | SID131503531 | 0 | -9.4 | -7 |
| SHANK1 | SID131512690 | 0 | 5.8 | 1.8 |
| CRTC1 | SID131507890 | 0 | 0.4 | -9.1 |
| LOC440582 | SID131508927 | 0 | 1.6 | 0.9 |
| COL12A1 | SID131521530 | 1 | 13.9 | 13.1 |
| SLC12A9 | SID131512780 | 0 | 5.9 | -15.1 |
| SDS | SID131517569 | 0 | 13.9 | 7.9 |
| DPM1 | SID131506179 | 0 | -1.9 | 2 |
| TTLL11 | SID131507904 | 0 | 0.4 | 3.4 |
| TTLL11 | SID131517861 | 0 | 15.1 | 8.2 |
| LOC146110 | SID131500599 | -1 | -19.9 | -8.2 |
| ARHGEF1 | SID131510491 | 0 | 3.3 | 7.5 |
| TMEM164 | SID131514043 | 0 | 7.3 | 10 |
| ENPEP | SID131520703 | 1 | 10.8 | 17.2 |
| LOC391770 | SID131508556 | 0 | 1.2 | 6.1 |
| LOC441512 | SID131516967 | 0 | 12.1 | 5.9 |
| CSNK1G2-AS1 | SID131520015 | 1 | 8.3 | 0.9 |
| RAD50 | SID131508962 | 0 | 1.7 | -0.2 |
| PLEKHH3 | SID131512952 | 0 | 6 | 13.2 |
| LOC440190 | SID131516925 | 0 | 12 | 14.6 |
| FMR1 | SID131515727 | 0 | 9.6 | 9.8 |
| CXCR4 | SID131513306 | 0 | 6.4 | 3.1 |
| PTPRU | SID131504665 | 0 | -4.8 | -9.4 |
| TECTA | SID131501584 | -1 | -8.8 | 0 |
| BMP3 | SID131519221 | 1 | 3.8 | 20.9 |
| PRKAA2 | SID131520510 | 1 | 10.1 | 2.9 |
| ARHGEF18 | SID131516186 | 0 | 10.4 | 17.8 |
| LOC442282 | SID131511852 | 0 | 4.8 | 7.8 |
| LINC01366 | SID131514374 | 0 | 7.7 | 11.3 |
| ALX1 | SID131514230 | 0 | 7.5 | -4.7 |
| VAMP2 | SID131520265 | 1 | 9.3 | 15.8 |
| RHBDF1P1 | SID131503572 | 0 | -9.2 | -7 |
| PEX26 | SID131517607 | 0 | 14 | 31.7 |
| LINC00475 | SID131521414 | 1 | 13.3 | 16.2 |
| MYOG | SID131500560 | -1 | -21.5 | -7.5 |
| OR13C3 | SID131503915 | 0 | -7.2 | 5.6 |
| LOC442279 | SID131517652 | 0 | 14.2 | 15 |
| LOC441615 | SID131521264 | 1 | 12.8 | 13.3 |
| LOC440680 | SID131520971 | 1 | 11.7 | 8.9 |
| LOC440976 | SID131511322 | 0 | 4.2 | 6.8 |
| OR2AG1 | SID131510421 | 0 | 3.2 | 6 |
| LOC440092 | SID131519849 | 1 | 7.7 | 10.9 |
| RASSF3 | SID131514589 | 0 | 8 | -1.7 |
| LTBP3 | SID131523192 | 2 (active) | 24.5 | 18.5 |
| TADA2A | SID131512046 | 0 | 5.1 | 5.8 |
| GSPT1 | SID131507134 | 0 | -0.5 | 0.2 |
| SLC25A17 | SID131512781 | 0 | 5.9 | 1.9 |
| MDM2 | SID131507825 | 0 | 0.3 | 3.8 |
| DUSP13B | SID131502095 | -1 | -5.4 | 2.1 |
| TOB1 | SID131503201 | 0 | -12.2 | 9.3 |
| INKA1 | SID131509479 | 0 | 2.2 | 6.5 |
| FAM89A | SID131522850 | 1 | 26.8 | 28.8 |
| KIFC2 | SID131522532 | 1 | 19.7 | 16.3 |
| ZNF34 | SID131501326 | -1 | -10.5 | -8.2 |
| KATNIP | SID131512838 | 0 | 5.9 | 4.8 |
| NUDT3 | SID131518988 | 1 | 0 | 9.3 |
| ZUP1 | SID131522607 | 1 | 20.5 | 30.1 |
| CFL1 | SID131508264 | 0 | 0.8 | -6.9 |
| SSBP4 | SID131513067 | 0 | 6.2 | 6.4 |
| DEPDC7 | SID131515588 | 0 | 9.4 | 7.1 |
| HOXA10 | SID131519542 | 1 | 6.2 | 12.5 |
| DNM1DN4-1 | SID131522860 | 1 | 27.5 | 27.6 |
